Assay results taken from article PMC5397059 (PLoS ONE, 2017).

Experiment: general procedure: Fmoc solid-phase peptide synthesis; 2-chlorotrityl chloride resin; HATU/DIPEA in NMP; cyclisation in solution with HATU/HOBt/DIPEA
Details: for crude yield: whole synthesis; for cyclisation yield: cyclisation step; for final HPLC purity / crude HPLC purity: UPLC-MS (UV)

Row | Substance | cyclisation yield | step yield (late stage modification step) | final HPLC purity (late stage modification step) | other results
1 | H2N-D-Leu-Val-Asn (Trt)-D-Orn(Boc)- Phe(4-OMe)-Leu- COOH | – | – | – | crude yield (scale 0.3 mmol): 96%
2 | H-[Asn(Trt)][dOrn](Boc)W(Boc)I[dL]V-OH | – | – | – | crude yield (scale 0.25 mmol): 89%
3 | H-[Asn(Trt)][dOrn](Boc)W(Boc)LIV-OH | – | – | – | crude yield (scale 0.25 mmol): 85%
4 | H-[Asn(Trt)][dOrn](Boc)W(Boc)[dPhe(4-Cl)][dL]V-OH | – | – | – | crude yield (scale 0.25 mmol): 80%
5 | H-[dA]V[Asn(Trt)][dOrn](Boc)W(Boc)L-OH | – | – | – | crude yield (scale 0.3 mmol): 72%
6 | H-[dL]A[Asn(Trt)][dOrn](Boc)W(Boc)L-OH | – | – | – | crude yield (scale 0.3 mmol): 87%
7 | H-[dL]I[Asn(Trt)][dOrn](Boc)W(Boc)L-OH | – | – | – | crude yield (scale 0.3 mmol): 88%
8 | H-[dL]VA[dOrn](Boc)W(Boc)L-OH | – | – | – | crude yield (scale 0.3 mmol): 99%
9 | H-[dL]V[Asn(Trt)][dOrn](Boc)AL-OH | – | – | – | crude yield (scale 0.3 mmol): 103%
10 | H-[dL]V[Asn(Trt)][dOrn](Boc)W(Boc)A-OH | – | – | – | crude yield (scale 0.3 mmol): 95%
11 | H-[dL]V[Asn(Trt)][dOrn](Boc)W(Boc)L-OH | – | – | – | crude yield (scale 0.3 mmol): 87%
12 | H-[dPhe(4-Cl)]I[dOrn](Boc)[dOrn](Boc)W(Boc)L-OH | – | – | – | crude yield (scale 0.44 mmol): 99%
13 | H-[dPhe(4-Cl)]V[Asn(Trt)][dOrn](Boc)W(Boc)L-OH | – | – | – | crude yield (scale 0.1 mmol): 70%
14 | cyclo (D-Leu-Ile-Asn(Trt)-D-Arg (Pbf)-Trp(Boc)-Leu) | 70% | – | – | –
15 | cyclo (D-Leu-Ile-Asn(Trt)-D-Orn(Boc)-Trp(Boc)-Leu) | 52% | – | – | –
16 | cyclo (D-Leu-Met-Asn(Trt)-D-Orn(Boc)-Trp(Boc)-Leu) | 40% | – | – | –
17 | cyclo (Trp (Boc)-D-Orn(Boc)-Asn(Trt)-Val-D-Leu-Leu) | 68% | – | – | –
18 | cyclo (Trp(Boc)-N-Me-Leu-D-Leu-N-Me-Val-Asn(Trt)-D-Orn(Boc)) | 73% | – | – | –
19 | cyclo(AL[dL]VN[dOrn]) (SMILES CC(C)C[C@@H]1NC(=O)[C@H](C)NC(=O)[C@@H](CCCN)NC(=O)[C@H](CC(N)=O)NC(=O)[C@H](C(C)C)NC(=O)[C@@H](CC(C)C)NC1=O) | – | 92% | 90% | –
20 | cyclo(AN[dOrn]WL[dL]) (SMILES CC(C)C[C@@H]1NC(=O)[C@H](Cc2c[nH]c3ccccc23)NC(=O)[C@@H](CCCN)NC(=O)[C@H](CC(N)=O)NC(=O)[C@H](C)NC(=O)[C@@H](CC(C)C)NC1=O) | – | 88% | 99.9% | –
21 | cyclo(A[dL]VN[dOrn]W) (SMILES CC(C)C[C@H]1NC(=O)[C@H](C)NC(=O)[C@H](Cc2c[nH]c3ccccc23)NC(=O)[C@@H](CCCN)NC(=O)[C@H](CC(N)=O)NC(=O)[C@H](C(C)C)NC1=O) | – | 80% | 98% | –
22 | cyclo(A[dOrn](Boc)[Asn(Trt)]V[dL]L) | 43% | – | – | –
23 | cyclo(A[dOrn]WL[dL]V) (SMILES CC(C)C[C@@H]1NC(=O)[C@H](Cc2c[nH]c3ccccc23)NC(=O)[C@@H](CCCN)NC(=O)[C@H](C)NC(=O)[C@H](C(C)C)NC(=O)[C@@H](CC(C)C)NC1=O) | – | 80% | 99.9% | –
24 | cyclo(D-Leu-Val-Asn(Trt)-D-Orn(Boc)-Phe(4-OMe)-Leu) | 41% | – | – | –
25 | cyclo(D-Phe (4-Cl)-Ile-D-Orn(Boc)-D-Orn(Boc)-Trp(Boc)-Leu) | 55% | – | – | –
26 | cyclo(II[dOrn]WL[dL]) (SMILES CC[C@H](C)[C@@H]1NC(=O)[C@H]([C@@H](C)CC)NC(=O)[C@@H](CC(C)C)NC(=O)[C@H](CC(C)C)NC(=O)[C@H](Cc2c[nH]c3ccccc23)NC(=O)[C@@H](CCCN)NC1=O) | – | 70% | 99.9% | –
27 | cyclo(IN[dOrn]WL[dL]) (SMILES CC[C@H](C)[C@@H]1NC(=O)[C@@H](CC(C)C)NC(=O)[C@H](CC(C)C)NC(=O)[C@H](Cc2c[nH]c3ccccc23)NC(=O)[C@@H](CCCN)NC(=O)[C@H](CC(N)=O)NC1=O) | – | 65% | 97% | –

Row | Substance | cyclisation yield | step yield (late stage modification step) | final HPLC purity (late stage modification step) | other results
28 | cyclo(IN[dR]WL[dL]) (SMILES CC[C@H](C)[C@@H]1NC(=O)[C@@H](CC(C)C)NC(=O)[C@H](CC(C)C)NC(=O)[C@H](Cc2c[nH]c3ccccc23)NC(=O)[C@@H](CCCNC(=N)N)NC(=O)[C@H](CC(N)=O)NC1=O) | – | 70% | – | crude HPLC purity (late stage modification step): 96%
29 | cyclo(IS(tBu)[dOrn]WL[dL]) (SMILES CC[C@H](C)[C@@H]1NC(=O)[C@@H](CC(C)C)NC(=O)[C@H](CC(C)C)NC(=O)[C@H](Cc2c[nH]c3ccccc23)NC(=O)[C@@H](CCCN)NC(=O)[C@H](COC(C)(C)C)NC1=O) | – | 30% | 97% | –
30 | cyclo(IS[dOrn]WL[dL]) (SMILES CC[C@H](C)[C@@H]1NC(=O)[C@@H](CC(C)C)NC(=O)[C@H](CC(C)C)NC(=O)[C@H](Cc2c[nH]c3ccccc23)NC(=O)[C@@H](CCCN)NC(=O)[C@H](CO)NC1=O) | – | 45% | 98% | difficulty met (late stage modification step): incomplete deprotection of the t-Bu protecting group of serine
31 | cyclo(I[dL]VN[dOrn]W) (SMILES CC[C@H](C)[C@@H]1NC(=O)[C@H](Cc2c[nH]c3ccccc23)NC(=O)[C@@H](CCCN)NC(=O)[C@H](CC(N)=O)NC(=O)[C@H](C(C)C)NC(=O)[C@@H](CC(C)C)NC1=O) | – | 96% | – | crude HPLC purity (late stage modification step): 95%
32 | cyclo(I[dOrn][dOrn]WL[dPhe(4-Cl)]) (SMILES CC[C@H](C)[C@@H]1NC(=O)[C@@H](Cc2ccc(Cl)cc2)NC(=O)[C@H](CC(C)C)NC(=O)[C@H](Cc2c[nH]c3ccccc23)NC(=O)[C@@H](CCCN)NC(=O)[C@@H](CCCN)NC1=O) | – | 50% | 96% | –
33 | cyclo(LWVN[dOrn][dL]) (SMILES CC(C)C[C@@H]1NC(=O)[C@@H](CC(C)C)NC(=O)[C@@H](CCCN)NC(=O)[C@H](CC(N)=O)NC(=O)[C@H](C(C)C)NC(=O)[C@H](Cc2c[nH]c3ccccc23)NC1=O) | – | 89% | 97% | –
34 | cyclo(L[dA]VN[dOrn]W) (SMILES CC(C)C[C@@H]1NC(=O)[C@H](Cc2c[nH]c3ccccc23)NC(=O)[C@@H](CCCN)NC(=O)[C@H](CC(N)=O)NC(=O)[C@H](C(C)C)NC(=O)[C@@H](C)NC1=O) | – | 72% | 92% | –
35 | cyclo(L[dL]MN[dOrn]W) (SMILES CSCC[C@@H]1NC(=O)[C@@H](CC(C)C)NC(=O)[C@H](CC(C)C)NC(=O)[C@H](Cc2c[nH]c3ccccc23)NC(=O)[C@@H](CCCN)NC(=O)[C@H](CC(N)=O)NC1=O) | – | 74% | 95% | –
36 | cyclo(L[dL]VN[dOrn]Y(Me)) (SMILES COc1ccc(C[C@@H]2NC(=O)[C@@H](CCCN)NC(=O)[C@H](CC(N)=O)NC(=O)[C@H](C(C)C)NC(=O)[C@@H](CC(C)C)NC(=O)[C@H](CC(C)C)NC2=O)cc1) | – | 82% | 99.9% | –
37 | cyclo(L[dL]VN[dOrn][dPhe(4-Cl)]) (SMILES CC(C)C[C@@H]1NC(=O)[C@@H](Cc2ccc(Cl)cc2)NC(=O)[C@@H](CCCN)NC(=O)[C@H](CC(N)=O)NC(=O)[C@H](C(C)C)NC(=O)[C@@H](CC(C)C)NC1=O) | – | 91% | 99.9% | –
38 | cyclo(L[dL]V[dOrn][dOrn]W) (SMILES CC(C)C[C@@H]1NC(=O)[C@H](Cc2c[nH]c3ccccc23)NC(=O)[C@@H](CCCN)NC(=O)[C@@H](CCCN)NC(=O)[C@H](C(C)C)NC(=O)[C@@H](CC(C)C)NC1=O) | – | 70% | – | crude HPLC purity (late stage modification step): 97%
39 | cyclo(L[dL][NMeV]N[dOrn]W) (SMILES CC(C)C[C@@H]1NC(=O)[C@H](Cc2c[nH]c3ccccc23)NC(=O)[C@@H](CCCN)NC(=O)[C@H](CC(N)=O)NC(=O)[C@H](C(C)C)N(C)C(=O)[C@@H](CC(C)C)NC1=O) | – | 71% | 98% | –
40 | cyclo(L[dNMeL]V[NMeN][dOrn]W) (SMILES CC(C)C[C@@H]1NC(=O)[C@H](Cc2c[nH]c3ccccc23)NC(=O)[C@@H](CCCN)NC(=O)[C@H](CC(N)=O)N(C)C(=O)[C@H](C(C)C)NC(=O)[C@@H](CC(C)C)N(C)C1=O) | – | 63% | 98% | –
41 | cyclo(L[dPhe(4-Cl)]VN[dOrn]W) (SMILES CC(C)C[C@@H]1NC(=O)[C@H](Cc2c[nH]c3ccccc23)NC(=O)[C@@H](CCCN)NC(=O)[C@H](CC(N)=O)NC(=O)[C@H](C(C)C)NC(=O)[C@@H](Cc2ccc(Cl)cc2)NC1=O) | – | 75% | – | crude HPLC purity (late stage modification step): 91%
42 | cyclo(N[dOrn]W[NMeL][dL][NMeV]) (SMILES CC(C)C[C@H]1NC(=O)[C@H](CC(C)C)N(C)C(=O)[C@H](Cc2c[nH]c3ccccc23)NC(=O)[C@@H](CCCN)NC(=O)[C@H](CC(N)=O)NC(=O)[C@H](C(C)C)N(C)C1=O) | – | 60% | 99.9% | –
43 | cyclo(N[dOrn]W[dPhe(4-Cl)][dL]V) (SMILES CC(C)C[C@H]1NC(=O)[C@@H](Cc2ccc(Cl)cc2)NC(=O)[C@H](Cc2c[nH]c3ccccc23)NC(=O)[C@@H](CCCN)NC(=O)[C@H](CC(N)=O)NC(=O)[C@H](C(C)C)NC1=O) | – | 80% | 99.9% | –
44 | cyclo(Trp(Boc)-Leu-N-Me-D-Leu-Val-N-Me-Asn(Trt)-D-Orn(Boc)) | 60% | – | – | –
45 | cyclo(Val-N-Me-Asn(Trt)-D-Orn(Boc)-Trp(Boc)-N-Me-Leu-D-Leu) | 80% | – | – | –
46 | cyclo(W(Boc)L[dL]IS(tBu)[dOrn](Boc)) | 68% | – | – | –
47 | cyclo(W(Boc)[dOrn](Boc)AV[dL]L) | 56% | – | – | –
48 | cyclo(W(Boc)[dOrn](Boc)[Asn(Trt)]A[dL]L) | 56% | – | – | –
49 | cyclo(W(Boc)[dOrn](Boc)[Asn(Trt)]V[dA]L) | 64% | – | – | –
50 | cyclo(W(Boc)[dOrn](Boc)[Asn(Trt)]V[dL]A) | 45% | – | – | –
51 | cyclo(W(Boc)[dOrn](Boc)[Asn(Trt)]V[dL]L) | 50% | – | – | –
52 | cyclo([Asn(Trt)][dOrn](Boc)W(Boc)I[dL]V) | 47% | – | – | –
53 | cyclo([Asn(Trt)][dOrn](Boc)W(Boc)LIV) | 47% | – | – | –
54 | cyclo([Asn(Trt)][dOrn](Boc)W(Boc)[dPhe(4-Cl)][dL]V) | 54% | – | – | –

Non-standard residues stand in square brackets, D forms with d. *: point of attachment. Asn(Trt) = N[C@@H](CC(=O)NC(c1ccccc1)(c1ccccc1)c1ccccc1)C(=O)O; dPhe(4-Cl) = N[C@H](Cc1ccc(Cl)cc1)C(=O)O; NMeN = CN[C@@H](CC(N)=O)C(=O)O; NMeL = CN[C@@H](CC(C)C)C(=O)O; dNMeL = CN[C@H](CC(C)C)C(=O)O; NMeV = CN[C@H](C(=O)O)C(C)C; dOrn = NCCC[C@@H](N)C(=O)O; Boc = CC(C)(C)OC(=O)*; tBu = CC(C)(C)*
